This assay addresses human Toll-like receptor 2 (hTLR2) on HEK-Blue hTLR2 reporter cells (human) (UniProt O60603). Nature of the assay: reporter cell line expressing hTLR2; interaction inferred from the NF-kB/SEAP read-out.

Sequences of proteins named here, by UniProt entry; tags and fusion partners are left off.
UniProt O60603: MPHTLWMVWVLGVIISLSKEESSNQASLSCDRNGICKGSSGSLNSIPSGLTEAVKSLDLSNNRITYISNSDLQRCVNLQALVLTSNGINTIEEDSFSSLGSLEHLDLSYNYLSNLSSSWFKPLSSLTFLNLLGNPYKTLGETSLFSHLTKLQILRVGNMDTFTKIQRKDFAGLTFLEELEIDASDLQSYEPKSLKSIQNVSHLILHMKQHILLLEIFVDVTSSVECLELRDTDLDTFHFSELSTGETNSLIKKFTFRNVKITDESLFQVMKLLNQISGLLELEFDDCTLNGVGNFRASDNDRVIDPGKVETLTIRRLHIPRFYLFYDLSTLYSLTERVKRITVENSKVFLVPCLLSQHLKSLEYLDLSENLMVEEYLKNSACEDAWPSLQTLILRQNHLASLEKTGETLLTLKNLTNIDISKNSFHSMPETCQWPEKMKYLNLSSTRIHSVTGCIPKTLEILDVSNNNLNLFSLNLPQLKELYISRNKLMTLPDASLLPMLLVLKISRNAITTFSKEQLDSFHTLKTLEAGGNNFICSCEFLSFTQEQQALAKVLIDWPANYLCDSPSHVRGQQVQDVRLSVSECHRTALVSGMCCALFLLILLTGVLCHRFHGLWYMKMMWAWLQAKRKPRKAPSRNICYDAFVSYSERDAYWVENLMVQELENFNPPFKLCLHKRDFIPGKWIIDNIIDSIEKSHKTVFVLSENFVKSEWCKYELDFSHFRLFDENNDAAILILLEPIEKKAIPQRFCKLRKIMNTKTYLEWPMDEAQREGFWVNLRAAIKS

Consider one molecule from patent publication US20230265131A1.

These are yes or no findings as the source states them, for the method shown. Some entries that bind do so weakly or less than the wild type. Sequences can lack the tags named with a protein.

B1: Amuc-1100 polypeptide of Akkermansia muciniphila, mature, with added start methionine and C-terminal His-Tag (Example 1 construct) (protein, not shown: small tags and cut ends)
chain: MIVNSKRSELDKKISIAAKEIKSANAAEITPSRSSNEELEKELNRYAKAVGSLETAYKPFLASSALVPTTPTAFQNELKTFRDSLISSCKKKNILITDTSSWLGFQVYSTQAPSVQAASTLGFELKAINSLVNKLAECGLSKFIKVYRPQLPIETPANNPEESDEADQAPWTPMPLEIAFQGDRESVLKAMNAITGMQDYLFTVNSIRIRNERMMPPPIANPAAAKPAAAQPATGAASLTPADEAAAPAAPAIQQVIKPYMGKEQVFVQVSLNLVHFNQPKAQEPSED
Regarding B1, the binding entry was “binds”.
